How the values were obtained:
[1] = general procedure: Fmoc solid-phase peptide synthesis; Rink Amide resin (10 mg, 2 umol); HATU/DIPEA; HATU/N-methylmorpholine; settings: whole synthesis, scale 2 umol
[2] = general procedure: Fmoc solid-phase peptide synthesis; resin (20 mg, 4 umol); HATU/DIPEA; HATU/N-methylmorpholine; settings: whole synthesis, scale 4 umol

| Substance | isolated mass [1] | isolated mass [2] |
| --- | --- | --- |
| Pentapeptide (12)-Gly-Phe-(Gd-6)-Gly-NH2 | 0.3 mg |  |
| tetrapeptide Gly-Phe-(Gd-6)-Gly-NH2 |  | 0.1 mg |
